Experimental data as given in PubChem BioAssay AID1508600 (Functional Genomics Laboratory (NCATS/FGL), 2020).
About 3,700 (7%) of roughly 53,000 sequences were called active.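 Rule for the calls: active = gene knockdowns whose robust z-score for IL-1 alpha signal is at least 2 or at most -2, so actives lie on both sides; inactive = the rest.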 Some of the results follow.

Assay: Components of the Cytosolic LPS Sensing Pathway: Gene Identification via Genome-wide siRNA Screen;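 note: robust z of the log signal after scaling to non-targeting control siRNA wells of the plate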
Conditions: RAW264.7 macrophages, IL-1a HTRF, actives lie on both sides, screened at 100 nM (by protocol), cells primed 5 h with Pam3CSK4 first
In short: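 Read-out: IL-1a HTRF on supernatant, divided by plate negative-control median ×100, log-transformed and converted to robust z-score. Cells were RAW264.7 given 100 nM siRNA, Pam3CSK4-primed 5 hours, then LipidA-transfected 24 hour.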

Row | Sequence | z-score
1 | GGAUACGAUCCAGUGUGCCTT against Lyzl4 | inactive: 1.04
2 | GCCAUGAUGCAUUAUGUAUTT against Haglr | inactive: -0.331
3 | GGCUCUUAAUUGACUUUGATT against Cdk16 | inactive: -1.15
4 | GGAGUGUAAUAACUUCUUATT against Washc5 | inactive: 0.202
5 | GCCUCUAGAAUGUAUGGAGTT against Wdr47 | inactive: 0.817
6 | GGCCAUUGCUGGUUCUGCATT against 4930412M03Rik | inactive: -0.957
7 | GGAGGACAUUGAGAAGGAATT against Tnni3 | inactive: 0.468
8 | CCAUUCUUAGUUCACUAUATT against Rgcc | active: -2.55
9 | GGUGGAAGAGGUCAAAUAATT against Denr | inactive: 1.05
10 | GGCUCUACUGGUGAAGAGATT against Zfp459 | inactive: 0.804
11 | GGGAACAGAAGUCAAGAGATT against Bex4 | inactive: 0.0293
12 | GGGCCUGGAAAACAUUGACTT against Ndufa1 | inactive: -0.316
13 | GCGAUUCUGUAAAGAGCGCTT against Nme1 | inactive: 1.9
14 | GGACACUUUCUCAUAUCAUTT against Abca9 | active: 2.06
15 | CCGUACAUAUGGUGAUCCATT against Rtn1 | inactive: -0.162
16 | GCAUGAUAACAGCACUAGGTT against Serpinb3c | inactive: -0.446
17 | GGUAAAUCAGCCAUAGUUUTT against Tafa3 | inactive: 1.53
18 | GGUCAUCAUGUCCAUCCGATT against Rpl10 | inactive: 0.319
19 | GGACAUUGAAGCCAUGGAUTT against Nsf | inactive: -0.0436
20 | CCCAUUAAGGUAUAAUAUCTT against Olfr855 | inactive: -0.301
21 | GGUCCUUAGCUGAGUCAUUTT against Tmem254a | inactive: 0.643
22 | CCCUAAUAGGUCAAUAAAGTT against Vmn1r71 | inactive: -0.0066
23 | AACUGUACAUUGAAGCAGATT against Cstf3 | inactive: 0.391

Shown with tabs: part of the list above
Row	Sequence	z-score
2	GCCAUGAUGCAUUAUGUAUTT against Haglr	inactive: -0.331
3	GGCUCUUAAUUGACUUUGATT against Cdk16	inactive: -1.15
4	GGAGUGUAAUAACUUCUUATT against Washc5	inactive: 0.202
5	GCCUCUAGAAUGUAUGGAGTT against Wdr47	inactive: 0.817
6	GGCCAUUGCUGGUUCUGCATT against 4930412M03Rik	inactive: -0.957
7	GGAGGACAUUGAGAAGGAATT against Tnni3	inactive: 0.468
8	CCAUUCUUAGUUCACUAUATT against Rgcc	active: -2.55
9	GGUGGAAGAGGUCAAAUAATT against Denr	inactive: 1.05
10	GGCUCUACUGGUGAAGAGATT against Zfp459	inactive: 0.804
11	GGGAACAGAAGUCAAGAGATT against Bex4	inactive: 0.0293
12	GGGCCUGGAAAACAUUGACTT against Ndufa1	inactive: -0.316
13	GCGAUUCUGUAAAGAGCGCTT against Nme1	inactive: 1.9
14	GGACACUUUCUCAUAUCAUTT against Abca9	active: 2.06
15	CCGUACAUAUGGUGAUCCATT against Rtn1	inactive: -0.162
16	GCAUGAUAACAGCACUAGGTT against Serpinb3c	inactive: -0.446
17	GGUAAAUCAGCCAUAGUUUTT against Tafa3	inactive: 1.53
18	GGUCAUCAUGUCCAUCCGATT against Rpl10	inactive: 0.319
19	GGACAUUGAAGCCAUGGAUTT against Nsf	inactive: -0.0436

Next records follow.

Row | Sequence | z-score
24 | GGAGCCUGAAUGCUGUAUUTT against Fam24a | inactive: -0.562
25 | GGGCAGUCAUAAAGAUACATT against Olfr131 | inactive: -0.252
26 | GCUGUUUUGUCUCCAGCCCTT against Zbtb20 | inactive: -0.118
27 | GCCAUCAAAAUCUCACAAGTT against Ate1 | inactive: -0.484
28 | GGAUGUGCACGAAGGACAGTT against Cdh2 | active: 2.09
29 | GUGCAGAUAUCUUUAGCAATT against Olfr159 | inactive: -0.958
30 | GGUGUUCAUUACUUUUGAGTT against Irak1bp1 | inactive: -1.37
31 | GGAUUUGAGAGCCAAUUGUTT against Abo | inactive: -0.0189
32 | GGUUAUUUUUGAUGAGACCTT against Ascc2 | inactive: -0.0563
33 | GGGCAUUUAGAAAUCUUGATT against Prkar2a | inactive: -0.871
34 | GCCGUAUGGAUGUAAAUUATT against D130040H23Rik | inactive: -0.285
35 | GGUGCUGGAGAAGAACAUGTT against Map2k3 | inactive: 1.51
36 | GGGACUGGAAACACACACGTT against Etos1 | inactive: -1.05
37 | GCUAACCGAGUUAGUGAGUTT against Lrsam1 | inactive: -0.49
38 | GACCUGAAGAAGUCAGAUGTT against Sycn | inactive: -1.15
39 | GCCAAUCAAGCACUCGCUCTT against Fam71e2 | inactive: 1.18
40 | GGGUCUGGUGAAGAACCUUTT against Akr1e1 | inactive: 0.168
41 | GGACAAGAGGACUCAGAAATT against Camk1 | inactive: -0.772
42 | GGUGUCUGAUGAUGAAUAUTT against Cnnm3 | inactive: 0.322
43 | CCUUGGAAAAGCUUGAUGUTT against Pip5k1a | inactive: -1.52
44 | GGAGAGCAAAUUAAGUUCATT against Erc1 | inactive: 1.01
45 | GGCUAAGUUCUAUAGUAAATT against Crkl | inactive: -0.339
46 | GCGUGAAAUGGAUGAUCAATT against Pacc1 | inactive: 0.695

Row | Sequence | z-score
47 | CGAAAAUCAAGCGGAAUUUTT against Zmiz1 | active: 2.49
48 | GGACCAGCUCAUCACCAAGTT against Spata24 | inactive: -1.42
49 | GGGUCAAAGAGAAAAAAGUTT against Hoxa13 | inactive: -1.2
50 | GGGAUAUUGAUAGUUUUUCTT against Haus2 | inactive: 0.743
51 | GGCUUUCUCCUACAUAUGCTT against Numbl | inactive: -0.976
52 | CGAGAAGGGUCAUAUGAGCTT against Rbp4 | inactive: -1.84
53 | GGACAUUUUCAAACAAGGCTT against Mthfs | inactive: -1.07
54 | GCUCAAUCUAGGGCGAAGATT against Cd247 | inactive: 0.12
55 | GCCAACCGUUUUCACAGACTT against Aldh1l1 | inactive: -0.389
56 | CGGUUCUGCAUAAAAGAACTT against Slc38a9 | inactive: -0.836
57 | CGCUCAUGAACUUGUACUUTT against Gpr137b | inactive: -1.27
58 | GGAUCUUAGUAAUAUUGGUTT against Ash2l | inactive: -0.72
59 | CCAGGUCUUAGUAAACAUUTT against Cbln2 | inactive: 0.609
60 | CCGUCCAAAAGGACUUAUCTT against Nap1l2 | inactive: 1.62
61 | CGUGAACAGCUUUAAGGUGTT against Usp27x | inactive: 1.34
62 | GGAAAACCUUUGUCAAAAATT against P2ry13 | inactive: 0.169
63 | CCAGGAUGAAAAGUCGUUUTT against Slco2a1 | inactive: -0.21
64 | GGAAGAGGAUAGGCAGGAATT against Gfer | active: 2.03
65 | GGAGGAGUGUUGAACUAAATT against Ttc14 | inactive: 1.05
66 | CCUGUUGAUUAAUUGAAGCTT against E2f2 | inactive: 0.184
67 | GGGAACCUAUUGAUAAUCUTT against Rbm39 | inactive: -0.578
68 | GGAAGACUUUGAAGAAAAATT against Olfr983 | inactive: -1.43
